# Reference: PubChem BioAssay AID1259308 (NCATS, 2017)
# Screen: 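Knock-downs that increase output of a recombinant reporter protein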 (primary screen)
# Cells: human HEK293 embryonic kidney cells stably expressing firefly luciferase (HEK-CMV-Luc2-Hygro)
# Knock-down reagent: single siRNA against human genes, 0.8 pmol siRNA per well
# Time to read-out: 72 h
# Read-out: 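Reporter luminescence and viable-cell signal on separate replicate plates, given as percent of non-targeting control and median/MAD z-scores, plus per-cell luciferase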
# Reading the numbers: total luciferase, z-score and total luciferase, % of control: higher = more reporter protein produced; luciferase per cell, z-score: higher = more reporter output per viable cell
# Active means: 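An siRNA counts as active if its total luciferase robust z-score exceeds 3; genes with two or more such siRNAs out of three were retested with fresh siRNAs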
# Meaning of the calls: active = raised luciferase; inactive = no rise
# In all, the deposit lists about 59,000 reagents; shown is an unselected part. Of all reagents, about 1,510 (2.6%) are marked active. 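Calls use total luciferase alone and ignore viability, so some active siRNAs may act by altering cell number.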 A number with no mark means an inactive call. The numbers tell different reagents against one gene apart. Not all columns of the deposit are shown. No sequences are given here.
The opening 8 entries as a preview:
"total luciferase, z-score","total luciferase, % of control","luciferase per cell, z-score",gene symbol,siRNA no.
-0.562,70.7,-1.19,PIGB,1
0.433,90.5,-0.26,PIGB,2
-0.474,72.5,-0.261,PIGB,3
0.751,96.8,0.712,GPIHBP1,1
-1.92,43.6,-0.803,GPIHBP1,2
0.919,100,1.46,GPIHBP1,3
-0.662,68.7,-0.911,TCEAL8,1
0.487,91.6,1.03,TCEAL8,2

Results, repeating the preview:
"total luciferase, z-score","total luciferase, % of control","luciferase per cell, z-score",gene symbol,siRNA no.
-0.562,70.7,-1.19,PIGB,1
0.433,90.5,-0.26,PIGB,2
-0.474,72.5,-0.261,PIGB,3
0.751,96.8,0.712,GPIHBP1,1
-1.92,43.6,-0.803,GPIHBP1,2
0.919,100,1.46,GPIHBP1,3
-0.662,68.7,-0.911,TCEAL8,1
0.487,91.6,1.03,TCEAL8,2
-1.23,57.5,-1.04,TCEAL8,3
1.3,108,1.28,SAT2,1
0.759,97,0.683,SAT2,2
-0.771,66.5,-1.02,SAT2,3
-0.844,65.1,-1.11,LCE2A,1
0.902,99.8,3.04,LCE2A,2
4.27 (active),167,3,LCE2A,3
-0.191,78.1,-0.589,DRC5,1
-2.27,36.8,-1.95,DRC5,2
0.52,92.2,0.257,DRC5,3
-1.34,55.3,-0.754,OR1J1,1
-0.474,72.5,-0.0388,OR1J1,2
1.23,106,1.17,OR1J1,3
-0.0789,80.3,-0.608,B3GNT6,1
-0.47,72.5,-0.838,B3GNT6,2
0.171,85.3,0.0722,B3GNT6,3
-0.262,76.7,0.642,HIGD2A,1
0.662,95.1,1.03,HIGD2A,2
0.399,89.8,0.115,HIGD2A,3
0.313,88.1,0.613,KRT74,1
-0.416,73.6,0.127,KRT74,2
-0.757,66.8,-0.945,KRT74,3
0.142,84.7,-0.381,MBIP,1
0.687,95.6,0.18,MBIP,2
0.901,99.8,0.734,MBIP,3
1.32,108,1.01,DNAJB5,1
-0.825,65.5,-0.751,DNAJB5,2
3.71 (active),156,2.16,DNAJB5,3
0.555,92.9,-0.067,MFSD2A,1
1.77,117,0.704,MFSD2A,2
-1.03,61.5,-1.23,MFSD2A,3
-1.01,61.7,-0.891,YPEL1,1
2.84,138,2.37,YPEL1,2
-2.15,39.1,-3.35,YPEL1,3
-1.14,59.2,-0.678,ATXN7L1,1
-0.837,65.2,-1.46,ATXN7L1,2
-1.08,60.3,-1.31,ATXN7L1,3
0.356,89,0.00281,MAPK15,1
0.624,94.3,0.235,MAPK15,2
0.0198,82.3,0.487,MAPK15,3
-0.407,73.8,-0.875,PNPLA8,1
-0.438,73.2,-0.495,PNPLA8,2
0.00225,81.9,-0.513,PNPLA8,3
1.08,103,0.752,FPGS,1
1.28,107,1.64,FPGS,2
1.37,109,0.373,FPGS,3
-1.64,49.2,-1.52,ZDHHC14,1
0.33,88.4,-0.407,ZDHHC14,2
-0.579,70.4,0.573,ZDHHC14,3
0.432,90.5,0.319,ZNF660,1
-1.2,58,-1.84,ZNF660,2
-0.277,76.4,-0.924,ZNF660,3
-1.15,58.9,0.638,OR6S1,1
-1.23,57.5,-0.584,OR6S1,2
-1.29,56.3,-0.779,OR6S1,3
-0.214,77.6,-0.102,H1-0,1
0.511,92,-0.0799,H1-0,2
1.38,109,1.97,H1-0,3
0.274,87.3,-0.0769,GGTLC2,1
-1.94,43.4,-2.22,GGTLC2,2
0.208,86,-0.259,GGTLC2,3
-2.58,30.5,-2.09,NPR2,1
0.633,94.5,-0.00843,NPR2,2
-0.119,79.5,-0.713,NPR2,3
0.195,85.8,0.337,INSM1,1
1.42,110,0.907,INSM1,2
-0.0584,80.7,-0.488,INSM1,3
